The target in the assay is Drosophila PH4αEFB (Drosophila melanogaster (endogenous in D17 cells)). Kind of assay: affinity purification with mass spectrometry; both proteins endogenous in D17 lysate, recovered together on Gelatin Sepharose 4B after TBS and 1 M NaCl washes; gel bands identified by protein ID LC-MS.

These are yes or no findings as the source states them, for the method shown. In cells and extracts the contact can be indirect. These calls come from enrichment with a bait or labelling near it, and not all partners need be listed.

B1: Drosophila protein disulfide isomerase (enzyme, UniProt P54399 19-496)
chain: AEAEVKVEEGVLVATVDNFKQLIADNEFVLVEFYAPWCGHCKALAPEYAKAAQQLAEKESPIKLAKVDATVEGELAEQYAVRGYPTLKFFRSGSPVEYSGGRQAADIIAWVTKKTGPPAKDLTSVADAEQFLKDNEIAIIGFFKDLESEEAKTFTKVANALDSFVFGVSSNADVIAKYEAKDNGVVLFKPFDDKKSVFEGELNEENLKKFAQVQSLPLIVDFNHESASKIFGGSIKSHLLFFVSREGGHIEKYVDPLKEIAKKYRDDILFVTISSDEEDHTRIFEFFGMNKEEVPTIRLIKLEEDMAKYKPESDDLSAETIEAFLKKFLDGKLKQHLLSQELPEDWDKNPVKVLVSSNFESVALDKSKSVLVEFYAPWCGHCKQLAPIYDQLAEKYKDNEDIVIAKMDSTANELESIKISSFPTIKYFRKEDNKVIDFNLDRTLDDFVKFLDANGEVADSEPVEETEEEEEAPKKDEL
On to B1, for which the binding entry is reported as “binds”.

These data come from publication PMC12744885.
